PubChem BioAssay AID652259 – Drosophila RNAi Screening Center – 2013
In all, the deposit lists about 22,000 reagents; this is an unselected part of those with a known target gene and a result. Over the whole deposit, 233 (1.1%) are marked active. 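Light values are raw, unnormalised plate reads; the ratio scores behind the reporter calls were not deposited.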 A number with no mark means an inactive call. A plus sign joins genes that one reagent is predicted to hit. The record does not give: the amount of reagent, the time to read-out, the dose of the treatment.

- Assay: 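Genome-wide hunt for genes that control Wingless pathway activity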 (primary screen)
- Cells: Drosophila clone 8 imaginal disc epithelial cells
- Reagent: long dsRNA against Drosophila genes
- Conditions: pathway stimulated by co-transfected Wingless expression plasmid
- Measured: 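Dual luciferase reads per well after Wingless plasmid stimulation: reporter firefly light and Renilla control light; activity is firefly divided by Renilla, a ratio not deposited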
- Scale: firefly reporter light: higher = more Wg reporter light, before normalisation; Renilla control light: higher = more transfected or surviving cells
- Hit rule: 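Strong candidates differ from their plate mean by at least two out of four per-plate statistical tests; weak candidates meet just one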
- Meaning of the calls: active = candidate regulator (raises or lowers reporter); inactive = not a candidate

Tsp68C [DRSC09295] → firefly reporter light, replicate 1 = 2016; Renilla control light, replicate 1 = 371
Obp56c [DRSC06552] → firefly reporter light, replicate 1 = 10156; Renilla control light, replicate 1 = 4016
Obp56c [DRSC22325] → firefly reporter light, replicate 1 = 3.96e5; firefly reporter light, replicate 2 = 3.93e5; Renilla control light, replicate 1 = 1.68e5; Renilla control light, replicate 2 = 1.56e5
faf [DRSC16942] → firefly reporter light, replicate 1 = 18349; Renilla control light, replicate 1 = 17906
CG13227 [DRSC06347] → firefly reporter light, replicate 1 = 7447; firefly reporter light, replicate 2 = 9.40e5; Renilla control light, replicate 1 = 4304; Renilla control light, replicate 2 = 5.20e5
Cpr50Ca [DRSC05454] → firefly reporter light, replicate 1 = 22160; Renilla control light, replicate 1 = 18464
Cpr50Ca [DRSC06372] → firefly reporter light, replicate 1 = 6967; Renilla control light, replicate 1 = 2089
Cpr50Ca [DRSC06375] → firefly reporter light, replicate 1 = 8936; Renilla control light, replicate 1 = 2420
ATbp [DRSC20906] → firefly reporter light, replicate 1 = 22053; Renilla control light, replicate 1 = 6481
Ugt302K1 [DRSC16086] → firefly reporter light, replicate 1 = 20604; Renilla control light, replicate 1 = 6224
CG17928 [DRSC02644] → firefly reporter light, replicate 1 = 2848; firefly reporter light, replicate 2 = 6352; Renilla control light, replicate 1 = 1229; Renilla control light, replicate 2 = 3303
CG16926 [DRSC06637] → firefly reporter light, replicate 1 = 14748; Renilla control light, replicate 1 = 4145
Tsp66A + CG42661 + CG42660 [DRSC10233] → firefly reporter light, replicate 1 = 2426; firefly reporter light, replicate 2 = 10457; Renilla control light, replicate 1 = 1429; Renilla control light, replicate 2 = 4141
Prosalpha6T [DRSC02873] → firefly reporter light, replicate 1 = 2645; firefly reporter light, replicate 2 = 5624; Renilla control light, replicate 1 = 1080; Renilla control light, replicate 2 = 2968
CG33255 (retired record) + hpRNA:CR32205 + CR42838 [DRSC09611] → firefly reporter light, replicate 1 = 4124; Renilla control light, replicate 1 = 1592
Sdr [DRSC15517] → firefly reporter light, replicate 1 = 6141; Renilla control light, replicate 1 = 2379
BomBc2 [DRSC06502] → firefly reporter light, replicate 1 = 3776; Renilla control light, replicate 1 = 1515
pon [DRSC18823] → firefly reporter light, replicate 1 = 20608; Renilla control light, replicate 1 = 8890
CG6765 [DRSC10706] → firefly reporter light, replicate 1 = 1352; firefly reporter light, replicate 2 = 4736; Renilla control light, replicate 1 = 940; Renilla control light, replicate 2 = 2152
PIG-L [DRSC15577] → firefly reporter light, replicate 1 = 18152; Renilla control light, replicate 1 = 4474
Syx18 [DRSC14628] → firefly reporter light, replicate 1 = 3785; firefly reporter light, replicate 2 = 9340; Renilla control light, replicate 1 = 1346; Renilla control light, replicate 2 = 2202
Act57B [DRSC04042] → firefly reporter light, replicate 1 = 9096; Renilla control light, replicate 1 = 2836
CG7991 [DRSC08609] → firefly reporter light, replicate 1 = 4865; Renilla control light, replicate 1 = 2709
CG18128 [DRSC04304] → firefly reporter light, replicate 1 = 2464; firefly reporter light, replicate 2 = 6630; Renilla control light, replicate 1 = 770; Renilla control light, replicate 2 = 2129
CG43121 [DRSC10457] → firefly reporter light, replicate 1 = 4176; Renilla control light, replicate 1 = 1812
CG18335 [DRSC06723] → firefly reporter light, replicate 1 = 7232; Renilla control light, replicate 1 = 1955
glo [DRSC16145] → firefly reporter light, replicate 1 = 25319; Renilla control light, replicate 1 = 7590
CG5180 [DRSC15731] → firefly reporter light, replicate 1 = 17687; Renilla control light, replicate 1 = 4264
c11.1 [DRSC18749] → firefly reporter light, replicate 1 = 17716; Renilla control light, replicate 1 = 9878
Ptp36E [DRSC03021] → firefly reporter light, replicate 1 = 2838; firefly reporter light, replicate 2 = 9353; Renilla control light, replicate 1 = 1449; Renilla control light, replicate 2 = 4896
CG31431 [DRSC14589] → firefly reporter light, replicate 1 = 38386; Renilla control light, replicate 1 = 7639
CG15258 [DRSC02478] → firefly reporter light, replicate 1 = 2801; firefly reporter light, replicate 2 = 5296; Renilla control light, replicate 1 = 1328; Renilla control light, replicate 2 = 2276

Copied from the list.
Value of Tsp66A + CG42661 + CG42660 [DRSC10233] under “firefly reporter light, replicate 2”: 10457
Result of CG33255 (retired record) + hpRNA:CR32205 + CR42838 [DRSC09611] under “Renilla control light, replicate 1”: 1592
c11.1 [DRSC18749], firefly reporter light, replicate 1 → 17716
Result of CG13227 [DRSC06347] in “firefly reporter light, replicate 2”: 9.40e5
Under “firefly reporter light, replicate 1”, Sdr [DRSC15517] is entered as 6141
